Test results: article PMC6172197
No constants are given. Whether binding was seen depends on the method and setting. Binding seen in cells or lysates may run through a third protein. Some binding calls cover weakened binding; strength is not graded here. Where a sequence is shown, tags or fusion partners need not be part of it.

Chains of the proteins cited; added tags and fusions are not shown.
UniProt P61586: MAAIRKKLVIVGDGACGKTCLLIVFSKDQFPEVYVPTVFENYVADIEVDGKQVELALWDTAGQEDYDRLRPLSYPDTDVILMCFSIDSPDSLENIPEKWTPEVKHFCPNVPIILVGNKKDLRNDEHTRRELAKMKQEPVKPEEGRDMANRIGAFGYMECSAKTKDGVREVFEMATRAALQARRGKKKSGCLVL
UniProt O00327: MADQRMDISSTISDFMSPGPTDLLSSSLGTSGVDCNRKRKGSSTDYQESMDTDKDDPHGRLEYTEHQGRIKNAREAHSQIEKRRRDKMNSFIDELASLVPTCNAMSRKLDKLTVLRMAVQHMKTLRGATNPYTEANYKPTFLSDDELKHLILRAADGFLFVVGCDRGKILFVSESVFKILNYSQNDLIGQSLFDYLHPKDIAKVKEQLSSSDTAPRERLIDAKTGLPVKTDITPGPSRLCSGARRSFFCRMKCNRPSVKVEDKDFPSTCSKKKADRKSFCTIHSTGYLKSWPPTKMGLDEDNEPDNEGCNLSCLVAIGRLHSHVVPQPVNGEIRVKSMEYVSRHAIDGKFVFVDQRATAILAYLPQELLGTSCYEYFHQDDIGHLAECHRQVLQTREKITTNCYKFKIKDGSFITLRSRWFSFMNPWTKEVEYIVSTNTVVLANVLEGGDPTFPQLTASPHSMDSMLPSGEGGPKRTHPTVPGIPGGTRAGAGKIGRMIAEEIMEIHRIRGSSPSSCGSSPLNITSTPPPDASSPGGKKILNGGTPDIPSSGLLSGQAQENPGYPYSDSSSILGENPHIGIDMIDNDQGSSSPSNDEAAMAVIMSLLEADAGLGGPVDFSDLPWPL

How the values were obtained:
[1] = target: FLAG-tagged RHOA, in vitro translated (RHOA-pcDNA3.1-FLAG) (UniProt P61586); test: co-IP; CLOCK/RhoGDI/RHOA and RhoGDI/BMAL1/RHOA coexpressed in vitro with the TNT system in separate reactions, translated proteins mixed in 200 μl lysis buffer; Co-IP with corresponding antibodies
[2] = target: FLAG-tagged RHOA, in vitro translated (RHOA-pcDNA3.1-FLAG) (UniProt P61586); test: co-IP; CLOCK/BMAL1/RHOA coexpressed in vitro with the TNT system (30 °C, 1.5 h), translated proteins mixed in 200 μl lysis buffer; Co-IP with antibodies against BMAL1, CLOCK or RHOA
[3] = target: HA-tagged BMAL1, in vitro translated (BMAL1-pcDNA3.1-HA) (UniProt O00327); test: as above

binding [1] | binding [2] | binding [3] | Molecule
binds | binds | – | HA-tagged BMAL1, in vitro translated (BMAL1-pcDNA3.1-HA) (from UniProt O00327 1-626)
binds | binds | binds | HA-tagged CLOCK, in vitro translated (CLOCK-pcDNA3.1-HA) (protein, UniProt O15516 1-846) MLFTVSCSKMSSIVDRDDSSIFDGLVEEDDKDKAKRVSRNKSEKKRRDQFNVLIKELGSMLPGNARKMDKSTVLQKSIDFLRKHKEITAQSDASEIRQDWKPTFLSNEEFTQLMLEALDGFFLAIMTDGSIIYVSESVTSLLEHLPSDLVDQSIFNFIPEGEHSEVYKILSTHLLESDSLTPEYLKSKNQLEFCCHMLRGTIDPKEPSTYEYVKFIGNFKSLNSVSSSAHNGFEGTIQRTHRPSYEDRVCFVATVRLATPQFIKEMCTVEEPNEEFTSRHSLEWKFLFLDHRAPPIIGYLPFEVLGTSGYDYYHVDDLENLAKCHEHLMQYGKGKSCYYRFLTKGQQWIWLQTHYYITYHQWNSRPEFIVCTHTVVSYAEVRAERRRELGIEESLPETAADKSQDSGSDNRINTVSLKEALERFDHSPTPSASSRSSRKSSHTAVSDPSSTPTKIPTDTSTPPRQHLPAHEKMVQRRSSFSSQSINSQSVGSSLTQPVMSQATNLPIPQGMSQFQFSAQLGAMQHLKDQLEQRTRMIEANIHRQQEELRKIQEQLQMVHGQGLQMFLQQSNPGLNFGSVQLSSGNSSNIQQLAPINMQGQVVPTNQIQSGMNTGHIGTTQHMIQQQTLQSTSTQSQQNVLSGHSQQTSLPSQTQSTLTAPLYNTMVISQPAAGSMVQIPSSMPQNSTQSAAVTTFTQDRQIRFSQGQQLVTKLVTAPVACGAVMVPSTMLMGQVVTAYPTFATQQQQSQTLSVTQQQQQQSSQEQQLTSVQQPSQAQLTQPPQQFLQTSRLLHGNPSTQLILSAAFPLQQSTFPQSHHQQHQSQQQQQLSRHRTDSLPDPSKVQPQ
